Reference: PubChem BioAssay AID1347076 (National Center for Advancing Translational Sciences (NCATS), 2019)
The campaign covered roughly 400,000 compounds. About 13,000 (3.2%) were called active. The shares of active, inactive and inconclusive entries below differ from those in the screen. The call rests on the fitted dose curve; in most records, active means well fitted cell-killing curve with a large enough effect; inconclusive means small, poorly fitted or top-dose-only effect, or effect the other way; inactive means flat fitted curve, though single readings scatter. Where the call is inconclusive, the potency comes from a doubtful curve fit.

test: qHTS assay for MDR1-selective chemotherapeutics: Primary screen using the drug-selected MDR subline cells KB-V1; details: KB-V1 MDR cells viability, CellTiter-Glo, 72 h; activity change, negative = cytotoxicity: at 46.1 µM (top of the series); further: nearly all actives have a fitted effect of over 60% in size
How it was run: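 Readout: CellTiter-Glo luminescence, 10 min after addition. Cells: KB-V1 MDR subline, 72 h at 37 degrees C with compound. Analysis: corrected, normalized data fitted to concentration-effect curves.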
On the % scale 0 is the no-effect control and ±100 the full control effect; potency means the concentration at half of the fitted maximal effect.

Structure (SMILES) | activity change, negative = cytotoxicity | Potency
O=[N+]([O-])c1cc(Cl)cc(/C=N\Nc2ccccn2)c1O | inactive: -8.07% | 
COc1cccc(C(=O)NNC(=O)c2ccc(NS(=O)(=O)c3cccs3)cc2)c1OC |  | inconclusive: 29.1 µM [rising, single point]
CCOC(=O)C(C(=O)Nc1ccccc1C)C1CCCCC1 (stereo not drawn) |  | inconclusive: 9.2 µM [cytotoxic, partial curve]
CCCS(=O)(=O)NC(=O)C1(C)CCCN(C(=O)c2ccc(C(=O)OC)cc2)C1 (stereo not drawn) | inactive: 5.38% | 
COc1ccc(-c2cc(C(=O)Nc3ccccc3O)c3ccccc3n2)cc1 |  | inconclusive: 7.31 µM [cytotoxic, partial curve, poor fit]
COc1ccc(CNCCSc2nnnn2-c2ccccc2)c(OC)c1 | inactive: -31.2% | 
c1ccc(-n2c(SCc3nc(-c4cccs4)no3)nnc2-c2ccco2)cc1 |  | inconclusive: 18.4 µM [cytotoxic, single point]
O=C(NC1CCCC1)C(c1ccccc1)n1c(Cc2cc(F)cc(F)c2)nc2ccccc21 (stereo not drawn) |  | inconclusive: 4.61 µM [cytotoxic, full curve]
Cc1nc(-c2ccc(F)cc2)c(CC(=O)N2CCN(S(=O)(=O)c3ccccc3Br)CC2)s1 |  | inconclusive: 29.1 µM [cytotoxic, single point]
Cn1ncc2c(Nc3cccc(Cl)c3)nc(Nc3cccc(Cl)c3)nc21 |  | inconclusive: 20.6 µM [cytotoxic, single point]
COc1cc(-c2nc(C(=O)NC3CCN(Cc4ccccc4)CC3)cc3c2[nH]c2ccccc23)cc(OC)c1OC |  | inconclusive: 29.1 µM [cytotoxic, single point]
COc1ccc(N2CCN(C(=O)C3CCN(S(=O)(=O)Cc4ccccc4)CC3)CC2)cc1 |  | inconclusive: 16.4 µM [rising, single point]
Cc1cc(C(F)(F)F)n2nc(C)c(-c3ccc(Cl)cc3)c2n1 |  | inconclusive: 29.1 µM [cytotoxic, single point]
Cc1c(C)n(CC(O)CSc2ccccc2)c2ccccc12 (stereo not drawn) | inactive: 4.35% | 
CCN1C(c2ccc(F)cc2)=CS/C1=C(\C#N)c1nnc2n1-c1ccccc1SC2 |  | inconclusive: 18.4 µM [cytotoxic, partial curve, poor fit]
O=C(NCC(c1ccco1)N1CCN(c2ccccc2)CC1)c1ccc2c(c1)OCO2 (stereo not drawn) | inconclusive: -19.2% | 
CCN(CCCn1c(=S)[nH]c2ccc(N3CCOCC3)cc2c1=O)c1ccccc1 |  | inconclusive: 4.61 µM [cytotoxic, partial curve, poor fit]
O=C(NCc1ccco1)c1ccc(COc2ccc(Cl)cc2)cc1 | inactive: -18.1% | 

Single records, as listed above:
CCOC(=O)C(C(=O)Nc1ccccc1C)C1CCCCC1 (stereo not drawn) reads Potency: inconclusive: 9.2 µM [cytotoxic, partial curve]
O=C(NCc1ccco1)c1ccc(COc2ccc(Cl)cc2)cc1 reads activity change, negative = cytotoxicity: inactive: -18.1%
